Measurements reported in PubChem BioAssay AID720505 (Drosophila RNAi Screening Center, 2013)

Aim: 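Genes needed for store-operated calcium entry in fly cells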 (primary screen)
System: Drosophila S2R+ cells
Reagents: long dsRNA against Drosophila genes
Conditions: thapsigargin (2 µM) in calcium-free buffer to empty internal stores, then 2 mM calcium added back
Read-out: 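Fluo-4 signal in 384-well plates read on a FLIPR after thapsigargin (2 µM, calcium-free) store depletion and 2 mM calcium add-back; unnormalised mean endpoint per well; screen run twice, selected wells retested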
Scale: calcium signal and retest calcium signal: higher = more calcium entry after store depletion
Call rule: 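Knock-downs counted as hits when calcium entry dropped relative to STIM1 positive and Rho1 negative controls present on each plate; roughly 1500 genes called, with reductions of differing size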
Meaning of the calls: active = called as lowering calcium entry; inactive = not called
The deposit covers about 20,000 reagents; below is a random part of those with a known target gene and a result. In the full data, about 2,100 (10%) got an active call. 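Raw plate signals without normalisation; calls rest on control-based scores that were not deposited; replicate 2 separates called from uncalled poorly.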 A plus sign joins genes that one reagent is predicted to hit. Not stated in the record: the amount of reagent, the time to read-out.

target gene	amplicon	calcium signal, replicate 1	calcium signal, replicate 2	retest calcium signal, replicate 1	retest calcium signal, replicate 2	Outcome
Noc2 (Nucleolar complex protein 2)	DRSC03165	83.2	95.5			inactive
Sol1	DRSC15263	174	109			inactive
Sol1	DRSC15271	168	119			inactive
Sol1	DRSC15681	157	147			inactive
CG34175	DRSC00424	70.7	91.1			active
CG11596	DRSC18540	81.2	102			inactive
mRpS2 (mitochondrial ribosomal protein S2)	DRSC00550	194	108			inactive
GCC185 (GRIP and coiled-coil domain containing 185 kDa)	DRSC15493	203	75.9			inactive
CG10116	DRSC09700	112	91.4			inactive
CG34429	DRSC10120	79.9	132			inactive
CG3078	DRSC18531	127	198			inactive
Ocho	DRSC11239	75.1	137			inactive
Idh (Isocitrate dehydrogenase)	DRSC10779	84.8	112			inactive
CNT1 (Concentrative nucleoside transporter 1)	DRSC06082	81	169			inactive
Mcm6 (Minichromosome maintenance 6)	DRSC18680	221	105			inactive
CG10747	DRSC02104	120	86.1			inactive
CG4438	DRSC02746	166	122			inactive
CG14568	DRSC11729	59.2	170			active
rhi (rhino)	DRSC05996	146	146			inactive
Ist1	DRSC09697	84.9	151			inactive
mil (milkah)	DRSC15696	50.3	97.8			active
CG5823	DRSC15881	145	216			inactive
CG5767	DRSC06953	124	139			inactive
Rab9D + Rab9Fa + Rab9E	DRSC19853	113	83.2			inactive
CG4835	DRSC10452	107	66			inactive
CG10505	DRSC04075	127	118			inactive
MBD-R2	DRSC14180	125	107			inactive
l(3)72Dp (lethal (3) 72Dp)	DRSC10477	80.5	178			inactive
RpLP2 (Ribosomal protein LP2)	DRSC07539	114	131			inactive

Entries listed above marked active:
target gene	amplicon	calcium signal, replicate 1	calcium signal, replicate 2	retest calcium signal, replicate 1	retest calcium signal, replicate 2	Outcome
CG34175	DRSC00424	70.7	91.1			active
CG14568	DRSC11729	59.2	170			active
mil (milkah)	DRSC15696	50.3	97.8			active

The listing continues:
target gene	amplicon	calcium signal, replicate 1	calcium signal, replicate 2	retest calcium signal, replicate 1	retest calcium signal, replicate 2	Outcome
Cyp9f3 (Cytochrome P450 9f3)	DRSC16636	163	79.6			inactive
His1:CG33816 + His1:CG33828 + His1:CG33819 + 21 more	DRSC21266	190	92.5			inactive
CG12213	DRSC14478	166	181	175	111	inactive
CG12213	DRSC22109	83.2	217			inactive
simj (simjang)	DRSC10942	103	98.2			inactive
CG3894	DRSC01762	85.3	4669			inactive
CG3894	DRSC04012	71.9	79.4			active
CG3894	DRSC04429	135	146	94.9	74.8	inactive
Cyp4ac3 (Cytochrome P450 4ac3)	DRSC03304	112	157			inactive
Ogdh (Oxoglutarate dehydrogenase)	DRSC09854	101	107			inactive
Ogdh (Oxoglutarate dehydrogenase)	DRSC09855	79.6	145			inactive
CG31098	DRSC14259	218	84.3			inactive
CG9368	DRSC11067	101	104			inactive
salt (salty dog)	DRSC15427	84.3	157			inactive
Ptpa (Phosphotyrosyl phosphatase activator)	DRSC00776	145	275			inactive
wds (will die slowly)	DRSC18852	73.1	110			active
Shab (Shaker cognate b)	DRSC08643	86.9	105			inactive
Shab (Shaker cognate b)	DRSC08699	131	79.6			inactive
CG14183	DRSC10182	99.3	135			inactive
Spc105R (Spc105-related)	DRSC11663	65	67.2			active
CtsL1 (Cathepsin L1)	DRSC05462	121	125			inactive
CtsL1 (Cathepsin L1)	DRSC07363	165	185			inactive
CG34417	DRSC18332	150	111			inactive
CG34417	DRSC18333	114	108			inactive
bumpel	DRSC16100	104	151			inactive
Gnpat (Glyceronephosphate O-acyltransferase)	DRSC16960	134	93.8			inactive
Urod (Uroporphyrinogen decarboxylase)	DRSC07569	126	195			inactive
CG7379	DRSC16237	51	191	269	70.1	active
mtrm (matrimony)	DRSC10322	135	117			inactive
mtrm (matrimony)	DRSC23076	122	133			inactive
CG6424	DRSC05936	133	117			inactive
NT5E-2 (Ecto-5'-nucleotidase 2)	DRSC06893	126	130			inactive
Obp57a (Odorant-binding protein 57a)	DRSC22047	93	216			inactive
CR13656 (pseudo)	DRSC14656	198	174			inactive
Gr21a (Gustatory receptor 21a)	DRSC00366	166	156			inactive
CG9641	DRSC00721	183	206			inactive
ZnT33D (Zinc transporter 33D)	DRSC02591	80.5	127			inactive
CG34426	DRSC09977	103	65.8			inactive
Send2 (Spermathecal endopeptidase 2)	DRSC01906	74.4	116			active
Npc2e (Niemann-Pick type C-2e)	DRSC15522	95.7	117			inactive
Npc2e (Niemann-Pick type C-2e)	DRSC22338	119	188			inactive
CG8736	DRSC07255	125	161			inactive
CG6168	DRSC10596	71.2	111			inactive
Arpc3A (Actin-related protein 2/3 complex, subunit 3A)	DRSC15596	135	151			inactive
GATAe	DRSC14223	147	182	95.6	120	inactive
GATAe	DRSC23209	127	137			inactive
CG8441	DRSC07180	153	144			inactive
CG17549	DRSC02625	107	98.3			inactive
Mlh1	DRSC07473	208	129			inactive
laf (labial associated factor)	DRSC12246	131	139			inactive
ACC (Acetyl-CoA carboxylase)	DRSC06059	123	138			inactive
ACC (Acetyl-CoA carboxylase)	DRSC07249	176	171			inactive
CG32428	DRSC11697	121	120			inactive
CG32428	DRSC11768	110	156			inactive
